Results as given in paper doi:10.1101/2023.09.29.560113.
No constants are given. Whether binding was seen depends on the method and setting. In cells and extracts the contact can be indirect. These calls come from enrichment with a bait or labelling near it, and not all partners need be listed. Where a sequence is shown, tags or fusion partners need not be part of it. Blank lines part the entries; values can stand above or below the molecule they belong to.

Protein sequences, listed by entry. Tags and fused reporters are not part of them. Lines headed by an entry give the natural chain unless they say otherwise; changes in a name come on top.
UniProt Q9ZUK7: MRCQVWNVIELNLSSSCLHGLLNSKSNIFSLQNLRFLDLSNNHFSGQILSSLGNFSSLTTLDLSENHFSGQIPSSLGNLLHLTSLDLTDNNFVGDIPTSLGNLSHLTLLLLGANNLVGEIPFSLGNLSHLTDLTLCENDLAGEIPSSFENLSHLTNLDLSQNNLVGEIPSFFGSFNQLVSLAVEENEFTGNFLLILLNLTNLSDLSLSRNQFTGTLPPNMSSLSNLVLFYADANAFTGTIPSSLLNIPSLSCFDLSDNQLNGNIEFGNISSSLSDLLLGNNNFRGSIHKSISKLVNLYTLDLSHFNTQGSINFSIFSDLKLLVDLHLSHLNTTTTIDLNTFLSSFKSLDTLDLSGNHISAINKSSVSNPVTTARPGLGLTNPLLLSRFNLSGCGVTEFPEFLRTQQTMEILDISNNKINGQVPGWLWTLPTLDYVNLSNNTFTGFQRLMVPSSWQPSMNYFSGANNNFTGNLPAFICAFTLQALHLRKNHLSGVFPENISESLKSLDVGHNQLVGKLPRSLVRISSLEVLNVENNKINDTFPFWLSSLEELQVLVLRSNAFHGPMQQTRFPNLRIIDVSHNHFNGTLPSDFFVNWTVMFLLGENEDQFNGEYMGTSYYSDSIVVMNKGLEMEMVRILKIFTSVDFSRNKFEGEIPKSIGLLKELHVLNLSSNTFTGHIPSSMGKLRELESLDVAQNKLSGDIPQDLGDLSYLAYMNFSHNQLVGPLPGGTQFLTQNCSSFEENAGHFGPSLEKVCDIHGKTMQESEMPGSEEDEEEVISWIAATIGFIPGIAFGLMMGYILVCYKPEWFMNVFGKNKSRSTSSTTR
UniProt O04157: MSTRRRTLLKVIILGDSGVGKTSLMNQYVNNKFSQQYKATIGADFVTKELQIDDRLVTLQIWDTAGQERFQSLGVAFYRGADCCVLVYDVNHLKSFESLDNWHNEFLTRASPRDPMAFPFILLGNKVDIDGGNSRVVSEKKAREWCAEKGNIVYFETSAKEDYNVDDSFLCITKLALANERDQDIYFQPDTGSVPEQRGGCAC

Biological target: T1, NET4A-GFP fusion protein (Arabidopsis thaliana) (UniProt F4KEW8)
T1 sequence: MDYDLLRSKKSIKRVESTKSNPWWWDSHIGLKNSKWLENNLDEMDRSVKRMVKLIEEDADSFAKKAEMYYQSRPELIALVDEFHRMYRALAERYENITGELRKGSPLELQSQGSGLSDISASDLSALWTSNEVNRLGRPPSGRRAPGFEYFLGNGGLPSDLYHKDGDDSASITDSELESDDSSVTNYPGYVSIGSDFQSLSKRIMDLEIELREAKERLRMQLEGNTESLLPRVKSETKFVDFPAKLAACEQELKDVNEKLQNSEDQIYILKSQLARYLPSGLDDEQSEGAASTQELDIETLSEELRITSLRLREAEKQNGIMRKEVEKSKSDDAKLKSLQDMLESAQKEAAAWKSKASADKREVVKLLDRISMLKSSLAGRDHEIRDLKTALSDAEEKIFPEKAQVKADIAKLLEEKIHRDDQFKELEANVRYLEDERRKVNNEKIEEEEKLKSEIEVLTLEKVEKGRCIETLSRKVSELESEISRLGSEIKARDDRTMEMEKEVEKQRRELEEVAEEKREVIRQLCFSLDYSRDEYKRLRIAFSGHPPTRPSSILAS
Assay: affinity purification with mass spectrometry

binding: binds
Molecule: At2g15042 (from UniProt Q9ZUK7)

binding: binds
Molecule: RABG3B (from UniProt O04157 1-203)

Further lines, the molecule ahead of its results:

Molecule: At4g01245 (from UniProt F4JI00)
binding: binds

B1: RABG3A (protein, UniProt Q948K8 1-206)
chain: MATRRRTLLKVIVLGDSGVGKTSLMNQYVHKKFSMQYKATIGADFVTKELQIGEKLVTLQIWDTAGQERFQSLGAAFYRGADCCALVYDVNVLRSFDNLETWHEEFLKQASPSDPKTFPFIVLGNKIDVDGGSSRVVSDKKAADWCASNGNIPYFETSAKDDFNVDEAFLTIAKTALANEHEQDIYFQGIPDAVTENEPKGGGCAC
binding: binds

B2: RABC1 (protein, UniProt O23657 1-212)
chain: MGSSSGQPEFDYLFKVLLIGDSGVGKSSLLLSFTSNTFDDLSPTIGVDFKVKYLTIGEKKLKLAIWDTAGQERFRTLTSSYYRGAQGIIMVYDVTRRDTFTNLSDIWAKEIDLYSTNQDCIKMLVGNKVDKESERAVSKKEGIDFAREYGCLFLECSAKTRVNVEQCFEELVLKILETPSLTAEGSSGGKKNIFKQNPAQTTSTSSSYCCSS
binding: binds
